Source: the supplement of paper PMC10849652
The list shows a part of the results.

Protein sequences, listed by entry. Tags and fused reporters are not part of them. Lines headed by an entry give the natural chain unless they say otherwise; changes in a name come on top.
UniProt Q9BW83: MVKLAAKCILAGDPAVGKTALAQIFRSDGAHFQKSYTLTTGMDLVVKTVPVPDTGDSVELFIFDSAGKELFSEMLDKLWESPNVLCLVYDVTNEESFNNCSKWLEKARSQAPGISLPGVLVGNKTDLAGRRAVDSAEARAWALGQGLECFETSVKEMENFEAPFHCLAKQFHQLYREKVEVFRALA
IGKV3D-11, A0A0A0MRZ8, UniProt A0A0A0MRZ8, whole entry, looked up: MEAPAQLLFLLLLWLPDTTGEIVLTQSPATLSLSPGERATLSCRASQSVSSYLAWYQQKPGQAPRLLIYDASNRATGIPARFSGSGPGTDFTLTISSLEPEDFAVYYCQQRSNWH
UniProt Q9NXR8, whole entry, looked up: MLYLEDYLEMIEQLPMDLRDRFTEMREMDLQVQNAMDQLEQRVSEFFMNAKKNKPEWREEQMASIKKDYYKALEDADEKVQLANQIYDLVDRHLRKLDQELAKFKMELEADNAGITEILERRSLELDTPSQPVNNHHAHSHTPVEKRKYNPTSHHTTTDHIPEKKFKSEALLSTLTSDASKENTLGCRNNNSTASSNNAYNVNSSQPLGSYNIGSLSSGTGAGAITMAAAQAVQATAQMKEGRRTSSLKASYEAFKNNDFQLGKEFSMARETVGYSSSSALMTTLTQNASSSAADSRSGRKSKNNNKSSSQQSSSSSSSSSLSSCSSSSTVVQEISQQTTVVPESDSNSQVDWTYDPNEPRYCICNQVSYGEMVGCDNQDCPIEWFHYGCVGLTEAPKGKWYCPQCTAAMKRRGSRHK
UniProt Q5VWK5: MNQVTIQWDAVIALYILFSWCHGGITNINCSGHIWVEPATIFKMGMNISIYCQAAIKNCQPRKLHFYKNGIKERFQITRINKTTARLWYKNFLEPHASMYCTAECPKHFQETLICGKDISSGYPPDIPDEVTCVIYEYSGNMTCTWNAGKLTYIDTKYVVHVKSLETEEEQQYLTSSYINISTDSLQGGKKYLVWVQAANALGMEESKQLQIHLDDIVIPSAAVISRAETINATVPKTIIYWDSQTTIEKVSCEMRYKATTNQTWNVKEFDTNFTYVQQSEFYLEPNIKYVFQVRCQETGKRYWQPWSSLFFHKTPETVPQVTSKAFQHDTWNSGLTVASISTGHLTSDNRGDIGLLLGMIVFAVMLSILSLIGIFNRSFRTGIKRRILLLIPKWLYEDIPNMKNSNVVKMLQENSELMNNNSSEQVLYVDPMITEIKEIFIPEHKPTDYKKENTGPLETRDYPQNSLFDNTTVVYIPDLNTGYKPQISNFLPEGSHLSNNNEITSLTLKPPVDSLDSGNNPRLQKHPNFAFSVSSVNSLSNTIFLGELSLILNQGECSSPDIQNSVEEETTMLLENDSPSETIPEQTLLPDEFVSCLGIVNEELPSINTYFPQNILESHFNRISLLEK
UniProt P31785: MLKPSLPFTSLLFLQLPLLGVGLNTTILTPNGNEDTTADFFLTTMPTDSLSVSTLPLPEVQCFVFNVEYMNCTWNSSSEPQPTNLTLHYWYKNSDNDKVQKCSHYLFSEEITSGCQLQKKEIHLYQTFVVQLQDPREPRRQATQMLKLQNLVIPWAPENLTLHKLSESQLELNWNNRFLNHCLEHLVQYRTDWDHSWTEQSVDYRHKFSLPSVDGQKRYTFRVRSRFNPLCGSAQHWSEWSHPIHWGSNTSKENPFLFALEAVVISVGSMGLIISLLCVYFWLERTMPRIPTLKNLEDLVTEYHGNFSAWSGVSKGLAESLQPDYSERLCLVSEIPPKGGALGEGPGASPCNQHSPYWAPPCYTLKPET
UniProt Q8NFU5: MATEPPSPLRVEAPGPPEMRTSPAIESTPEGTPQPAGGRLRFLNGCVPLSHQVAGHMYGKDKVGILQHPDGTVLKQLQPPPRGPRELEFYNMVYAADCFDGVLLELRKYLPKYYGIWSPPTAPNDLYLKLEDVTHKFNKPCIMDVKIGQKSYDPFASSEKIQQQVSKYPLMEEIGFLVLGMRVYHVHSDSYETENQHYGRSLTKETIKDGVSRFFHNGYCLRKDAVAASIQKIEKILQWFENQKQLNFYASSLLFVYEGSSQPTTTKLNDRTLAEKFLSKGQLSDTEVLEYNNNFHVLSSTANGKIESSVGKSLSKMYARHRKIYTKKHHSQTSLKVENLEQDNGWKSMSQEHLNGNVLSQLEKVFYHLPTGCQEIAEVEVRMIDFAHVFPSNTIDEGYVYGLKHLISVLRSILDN
UniProt P35475: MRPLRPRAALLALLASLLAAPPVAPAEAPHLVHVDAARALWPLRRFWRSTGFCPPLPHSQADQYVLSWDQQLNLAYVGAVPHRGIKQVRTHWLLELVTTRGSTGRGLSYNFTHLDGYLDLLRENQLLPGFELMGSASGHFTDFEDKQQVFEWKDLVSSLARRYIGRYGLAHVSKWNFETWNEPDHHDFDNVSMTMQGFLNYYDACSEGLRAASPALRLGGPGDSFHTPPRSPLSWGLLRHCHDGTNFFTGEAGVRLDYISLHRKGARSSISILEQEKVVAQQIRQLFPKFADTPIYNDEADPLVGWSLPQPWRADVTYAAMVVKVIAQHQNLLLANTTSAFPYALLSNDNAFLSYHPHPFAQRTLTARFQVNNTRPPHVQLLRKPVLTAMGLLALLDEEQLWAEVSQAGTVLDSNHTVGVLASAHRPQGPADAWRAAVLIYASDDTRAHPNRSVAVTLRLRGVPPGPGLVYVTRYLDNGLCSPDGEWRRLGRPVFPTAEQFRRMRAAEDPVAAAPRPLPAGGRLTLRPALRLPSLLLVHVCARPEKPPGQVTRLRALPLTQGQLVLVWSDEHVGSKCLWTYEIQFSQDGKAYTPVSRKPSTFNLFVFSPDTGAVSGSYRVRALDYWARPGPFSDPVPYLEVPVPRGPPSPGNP
UniProt Q8WYH8, whole entry, looked up: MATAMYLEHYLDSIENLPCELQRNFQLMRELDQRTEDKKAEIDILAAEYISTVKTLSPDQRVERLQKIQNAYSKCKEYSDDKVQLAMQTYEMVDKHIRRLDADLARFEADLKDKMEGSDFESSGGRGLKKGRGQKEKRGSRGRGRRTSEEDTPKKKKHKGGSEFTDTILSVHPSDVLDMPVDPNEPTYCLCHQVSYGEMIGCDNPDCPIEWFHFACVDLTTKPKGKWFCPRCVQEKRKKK
UniProt O14713: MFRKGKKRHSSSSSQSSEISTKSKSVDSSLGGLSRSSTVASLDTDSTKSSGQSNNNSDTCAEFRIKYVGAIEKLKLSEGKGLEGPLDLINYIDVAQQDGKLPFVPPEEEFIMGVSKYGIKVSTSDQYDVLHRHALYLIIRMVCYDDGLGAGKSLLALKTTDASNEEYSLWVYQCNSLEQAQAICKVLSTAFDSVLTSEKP
UniProt Q8NBZ0, whole entry, looked up: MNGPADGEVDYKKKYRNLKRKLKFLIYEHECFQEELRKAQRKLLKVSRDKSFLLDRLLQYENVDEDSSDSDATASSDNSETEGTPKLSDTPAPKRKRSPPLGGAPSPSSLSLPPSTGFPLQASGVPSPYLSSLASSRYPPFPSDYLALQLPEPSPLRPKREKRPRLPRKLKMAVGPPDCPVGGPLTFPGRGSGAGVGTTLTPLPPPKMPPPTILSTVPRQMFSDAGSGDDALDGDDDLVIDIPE
UniProt P22304: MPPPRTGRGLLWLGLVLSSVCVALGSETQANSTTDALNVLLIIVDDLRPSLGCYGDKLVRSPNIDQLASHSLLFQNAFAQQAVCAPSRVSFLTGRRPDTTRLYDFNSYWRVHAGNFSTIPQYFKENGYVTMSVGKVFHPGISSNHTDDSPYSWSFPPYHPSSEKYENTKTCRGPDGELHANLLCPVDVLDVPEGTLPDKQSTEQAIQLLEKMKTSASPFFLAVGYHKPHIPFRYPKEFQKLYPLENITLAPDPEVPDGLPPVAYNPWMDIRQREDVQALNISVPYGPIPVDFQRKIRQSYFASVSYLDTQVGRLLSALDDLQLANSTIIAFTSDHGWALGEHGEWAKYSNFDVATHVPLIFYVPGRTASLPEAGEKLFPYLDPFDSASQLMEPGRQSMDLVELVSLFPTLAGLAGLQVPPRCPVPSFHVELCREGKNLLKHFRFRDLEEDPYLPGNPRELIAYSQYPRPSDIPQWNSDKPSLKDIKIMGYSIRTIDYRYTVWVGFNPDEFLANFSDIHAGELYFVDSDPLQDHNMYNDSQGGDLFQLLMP
UniProt Q9NQS7, whole entry, looked up: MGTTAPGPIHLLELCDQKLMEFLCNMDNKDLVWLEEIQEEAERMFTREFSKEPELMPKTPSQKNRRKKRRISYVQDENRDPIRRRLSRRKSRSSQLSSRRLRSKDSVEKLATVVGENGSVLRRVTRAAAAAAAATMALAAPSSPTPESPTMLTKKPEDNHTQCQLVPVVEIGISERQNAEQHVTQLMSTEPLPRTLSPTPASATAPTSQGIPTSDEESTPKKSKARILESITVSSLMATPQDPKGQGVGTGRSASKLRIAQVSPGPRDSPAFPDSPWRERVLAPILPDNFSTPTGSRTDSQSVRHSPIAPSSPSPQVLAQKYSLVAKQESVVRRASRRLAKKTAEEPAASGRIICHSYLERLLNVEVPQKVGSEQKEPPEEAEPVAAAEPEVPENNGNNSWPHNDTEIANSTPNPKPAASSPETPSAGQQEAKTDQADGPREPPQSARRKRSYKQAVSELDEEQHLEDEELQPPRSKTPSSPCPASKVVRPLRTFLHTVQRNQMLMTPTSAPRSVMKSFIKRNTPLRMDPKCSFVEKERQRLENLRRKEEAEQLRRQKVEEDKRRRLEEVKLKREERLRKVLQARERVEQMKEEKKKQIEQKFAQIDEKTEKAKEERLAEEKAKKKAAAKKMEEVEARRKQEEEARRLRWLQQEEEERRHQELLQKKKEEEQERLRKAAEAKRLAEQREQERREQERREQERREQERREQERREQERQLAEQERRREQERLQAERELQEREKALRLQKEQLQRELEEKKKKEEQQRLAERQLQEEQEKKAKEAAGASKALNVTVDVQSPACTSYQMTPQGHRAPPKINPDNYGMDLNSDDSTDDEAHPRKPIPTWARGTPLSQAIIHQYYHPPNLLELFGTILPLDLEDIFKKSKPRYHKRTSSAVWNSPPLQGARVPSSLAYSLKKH
UniProt Q96CB8, whole entry, looked up: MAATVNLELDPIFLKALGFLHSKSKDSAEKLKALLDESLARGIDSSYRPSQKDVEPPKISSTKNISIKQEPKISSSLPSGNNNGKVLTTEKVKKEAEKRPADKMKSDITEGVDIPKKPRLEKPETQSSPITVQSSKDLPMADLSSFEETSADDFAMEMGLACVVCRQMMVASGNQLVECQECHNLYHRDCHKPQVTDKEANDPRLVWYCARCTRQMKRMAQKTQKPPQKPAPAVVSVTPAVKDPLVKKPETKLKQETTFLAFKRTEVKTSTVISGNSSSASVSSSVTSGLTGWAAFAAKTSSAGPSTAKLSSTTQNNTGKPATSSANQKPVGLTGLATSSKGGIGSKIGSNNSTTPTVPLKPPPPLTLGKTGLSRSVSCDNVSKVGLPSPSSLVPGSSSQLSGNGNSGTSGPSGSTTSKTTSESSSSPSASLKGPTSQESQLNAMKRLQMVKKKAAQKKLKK
UniProt Q96A47: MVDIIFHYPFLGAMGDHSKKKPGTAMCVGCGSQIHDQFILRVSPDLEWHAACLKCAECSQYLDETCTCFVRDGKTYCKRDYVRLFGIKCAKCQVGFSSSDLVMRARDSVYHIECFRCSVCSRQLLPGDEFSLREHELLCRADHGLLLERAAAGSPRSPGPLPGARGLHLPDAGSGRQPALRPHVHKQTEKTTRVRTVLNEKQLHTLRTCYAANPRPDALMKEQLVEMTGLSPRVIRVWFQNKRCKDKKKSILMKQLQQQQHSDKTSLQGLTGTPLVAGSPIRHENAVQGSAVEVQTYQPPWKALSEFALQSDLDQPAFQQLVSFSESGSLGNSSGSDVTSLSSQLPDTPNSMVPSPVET
UniProt P01344, whole entry, looked up: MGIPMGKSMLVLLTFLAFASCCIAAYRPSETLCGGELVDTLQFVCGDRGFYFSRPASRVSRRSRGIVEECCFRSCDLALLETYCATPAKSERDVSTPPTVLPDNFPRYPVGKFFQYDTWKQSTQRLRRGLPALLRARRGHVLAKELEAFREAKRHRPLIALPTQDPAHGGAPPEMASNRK
UniProt Q9Y573: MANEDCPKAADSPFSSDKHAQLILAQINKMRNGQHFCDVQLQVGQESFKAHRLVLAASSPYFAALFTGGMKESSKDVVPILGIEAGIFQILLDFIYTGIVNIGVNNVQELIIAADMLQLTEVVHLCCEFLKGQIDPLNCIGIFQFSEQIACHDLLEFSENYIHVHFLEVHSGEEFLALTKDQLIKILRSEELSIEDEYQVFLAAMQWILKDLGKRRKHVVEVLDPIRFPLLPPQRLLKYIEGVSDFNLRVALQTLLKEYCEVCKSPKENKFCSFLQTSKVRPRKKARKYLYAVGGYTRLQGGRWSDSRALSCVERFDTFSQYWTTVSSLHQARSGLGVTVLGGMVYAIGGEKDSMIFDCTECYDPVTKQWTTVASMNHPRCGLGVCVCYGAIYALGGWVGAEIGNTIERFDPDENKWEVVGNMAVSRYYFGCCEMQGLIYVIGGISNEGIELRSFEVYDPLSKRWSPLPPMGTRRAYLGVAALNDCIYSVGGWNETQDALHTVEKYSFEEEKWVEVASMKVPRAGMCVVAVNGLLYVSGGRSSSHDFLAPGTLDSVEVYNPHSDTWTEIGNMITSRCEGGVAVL

Legend:
Assay in all cases: log2 fold change, soluble protein after heating vs DMSO (PISA); higher = thermal stabilisation; K562 cells, 10 uM, 30 min; active = over 0.2 and 3.5 SD of the protein, either way, in both replicates (recomputed)
[1] = compound: CC1=C(C=C(C=C1)NC(=O)C2=CC(=CC=C2)N(C)C)NC(=O)C3=CC=C(C=C3)O
In short: (§1)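 K562 cells at 2×10^6 cells/mL were treated for 30 min with 10 μM compound, and aliquots were heated for 3 min over 48°C-58°C before pooling. Extraction used PBS with 0.5% NP-40 at 4°C, and soluble protein was the supernatant after 21,000xg for 90 min, measured by TMTpro 16plex LC-MS/MS with channel sums equalised. Thermal stability values, relative to control samples and from duplicates, are log2 fold changes.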

[2] = compound: CC1=CC=C(C=C1)SC2=C3C=C(SC3=CN=C2)C(=O)N
In short: as §1

[3] = compound: CC1=NC(=CC=C1)C2=C(N=C(N2)C(C)(C)C)C3=CC4=NC=CN=C4C=C3
In short: as §1

Nexturastat A = compound: CCCCN(Cc1ccc(C(=O)NO)cc1)C(=O)Nc1ccccc1 [Nexturastat A]
In short: as §1

vemurafenib = compound: CCCS(=O)(=O)Nc1ccc(F)c(C(=O)c2c[nH]c3ncc(-c4ccc(Cl)cc4)cc23)c1F [vemurafenib]
In short: as §1

[4] = compound: CCCS(=O)(=O)Nc1ccc(F)c(C(=O)c2c[nH]c3ncc(Cl)cc23)c1F
In short: as §1

givinostat = compound: CCN(CC)Cc1ccc2cc(COC(=O)Nc3ccc(C(=O)NO)cc3)ccc2c1 [givinostat]
In short: as §1

[5] = compound: CC[C@@H]1C(=O)N(C)c2cnc(Nc3ccc(C(=O)NC4CCN(C)CC4)cc3OC)nc2N1C1CCCC1
In short: as §1

volasertib = compound: CC[C@@H]1C(=O)N(C)c2cnc(Nc3ccc(C(=O)N[C@H]4CC[C@H](N5CCN(CC6CC6)CC5)CC4)cc3OC)nc2N1C(C)C [volasertib]
In short: as §1

epoxomicin = compound: CC[C@H](C)[C@@H](C(=O)N[C@@H]([C@@H](C)O)C(=O)N[C@@H](CC(C)C)C(=O)[C@]1(CO1)C)NC(=O)[C@H]([C@@H](C)CC)N(C)C(=O)C [epoxomicin]
In short: as §1

[6] = compound: CN(C)CC(=O)Nc1ccc2[nH]c(=O)c3ccccc3c2c1
In short: as §1

[7] = compound: CCn1c(C(=O)N(C2CC2)C2CC2)cc2c3c(ncn3C)c(Nc3cc(C)n(C)n3)nc21
In short: as §1

[8] = compound: CCn1cc(-c2ccnc3[nH]c(-c4cccc(CN(C)C)c4)cc23)c(-c2ccc(NC(=O)N(C)C)cc2)n1
In short: as §1

[9] = compound: CN1C2=C(C3=C1C(=O)N(N=C3)CC4=CC(=CC=C4)N)SC(=C2)S(=O)C
In short: as §1

[10] = compound: CN1CCC(CNc2ccc3ncc(-c4cccc(OC(F)(F)F)c4)n3n2)CC1
In short: as §1

[11] = compound: CCCc1cc(C)[nH]c(=O)c1CNC(=O)c1cc(-c2ccnc(N3CCN(C)CC3)c2)cc2c1cnn2C(C)C
In short: as §1

barasertib = compound: CCN(CCCOc1ccc2c(Nc3cc(CC(=O)Nc4cccc(F)c4)[nH]n3)ncnc2c1)CCOP(=O)(O)O [barasertib]
In short: as §1

[12] = compound: CC[C@H](C)N1C=C(C2=C(C=C(C=C21)C3=CN=C(C=C3)N4CCNCC4)C(=O)NCC5=C(C=C(NC5=O)C)C)C
In short: as §1

rosiglitazone = compound: CN(CCOC1=CC=C(C=C1)C[C@H]2C(=O)NC(=O)S2)C3=CC=CC=N3 (racemic) [rosiglitazone]
In short: as §1

## ITPRID2 (UniProt P28290)
[1]
  log2 fold change: inactive: -0.003
[2]
  log2 fold change: inactive: -0.103
[3]
  log2 fold change: inactive: -0.065
Nexturastat A
  log2 fold change: inactive: -0.188
vemurafenib
  log2 fold change: inactive: -0.125
[4]
  log2 fold change: inactive: -0.097
givinostat
  log2 fold change: inactive: 0.213
[5]
  log2 fold change: inactive: 0.01
volasertib
  log2 fold change: inactive: -0.373
epoxomicin
  log2 fold change: inactive: -0.109
[6]
  log2 fold change: inactive: -0.106

## IFT27 (UniProt Q9BW83)
[2]
  log2 fold change: inactive: -0.159
[4]
  log2 fold change: inactive: 0.029
givinostat
  log2 fold change: inactive: 0.056
volasertib
  log2 fold change: inactive: 0.191
[7]
  log2 fold change: inactive: -0.033
[8]
  log2 fold change: inactive: -0.19
[9]
  log2 fold change: inactive: -0.052
[10]
  log2 fold change: inactive: -0.074

## IMPDH2 (UniProt H0Y4R1)
[1]
  log2 fold change: inactive: 0.01
[2]
  log2 fold change: inactive: -0.069
[3]
  log2 fold change: inactive: -0.021
Nexturastat A
  log2 fold change: inactive: 0.062
vemurafenib
  log2 fold change: inactive: -0.044
[4]
  log2 fold change: inactive: 0.041
[11]
  log2 fold change: inactive: 0.02
givinostat
  log2 fold change: inactive: -0.148
barasertib
  log2 fold change: inactive: -0.085
volasertib
  log2 fold change: inactive: 0.214
[12]
  log2 fold change: inactive: -0.045
epoxomicin
  log2 fold change: inactive: 0.081
[7]
  log2 fold change: inactive: -0.08
[8]
  log2 fold change: inactive: 0.077
[6]
  log2 fold change: inactive: 0.016
rosiglitazone
  log2 fold change: inactive: -0.04
[10]
  log2 fold change: inactive: -0.014

## IGFBP6 (UniProt P24592)
[1]
  log2 fold change: inactive: 0.03
vemurafenib
  log2 fold change: inactive: 0.189
[6]
  log2 fold change: inactive: -0.186
[9]
  log2 fold change: inactive: 0.107

## IGSF1 isoform 4 (UniProt Q8N6C5)
[2]
  log2 fold change: inactive: 0.059
[4]
  log2 fold change: inactive: 0.064
[11]
  log2 fold change: inactive: -0.342
[5]
  log2 fold change: inactive: -0.211
volasertib
  log2 fold change: inactive: -0.116

## IGLC3 (UniProt P0DOY3)
[11]
  log2 fold change: inactive: -0.115
[5]
  log2 fold change: inactive: 0.145
[12]
  log2 fold change: inactive: 1.76

## IGKV3D-11, A0A0A0MRZ8
[12]
  log2 fold change: inactive: 0.856

## ING3 (UniProt Q9NXR8)
[5]
  log2 fold change: inactive: 0.022
[8]
  log2 fold change: inactive: -0.041
[10]
  log2 fold change: inactive: 0.221

## IL23R (UniProt Q5VWK5)
vemurafenib
  log2 fold change: inactive: -0.048
barasertib
  log2 fold change: inactive: 0.063
[6]
  log2 fold change: inactive: -0.179
rosiglitazone
  log2 fold change: inactive: 0.078
[9]
  log2 fold change: inactive: 0.047

## IL2RG (UniProt P31785)
Nexturastat A
  log2 fold change: inactive: 0.099
vemurafenib
  log2 fold change: inactive: -0.067
[12]
  log2 fold change: inactive: -0.254
epoxomicin
  log2 fold change: inactive: -0.042
[8]
  log2 fold change: inactive: 0.031
[6]
  log2 fold change: inactive: -0.007
[10]
  log2 fold change: inactive: -0.259

## IDH3A isoform 2 (UniProt P50213)
[3]
  log2 fold change: inactive: -0.083
givinostat
  log2 fold change: inactive: 0.175
barasertib
  log2 fold change: inactive: -0.012
[12]
  log2 fold change: inactive: -0.056

## IPMK (UniProt Q8NFU5)
[12]
  log2 fold change: inactive: 0.112

## IDUA (UniProt P35475)
[2]
  log2 fold change: inactive: -0.033
Nexturastat A
  log2 fold change: inactive: 0.038
[4]
  log2 fold change: inactive: 0.056
[11]
  log2 fold change: inactive: -0.069
volasertib
  log2 fold change: inactive: -0.413
epoxomicin
  log2 fold change: inactive: -0.057
[8]
  log2 fold change: inactive: -0.053
[10]
  log2 fold change: inactive: -0.272

## ITPR3 (UniProt Q14573)
[3]
  log2 fold change: inactive: -0.201
vemurafenib
  log2 fold change: inactive: -0.145
[5]
  log2 fold change: inactive: -0.121
[6]
  log2 fold change: inactive: -0.042

## ING5 (UniProt Q8WYH8)
[2]
  log2 fold change: inactive: 0.058
[3]
  log2 fold change: inactive: -0.052
[4]
  log2 fold change: inactive: -0.011
[11]
  log2 fold change: inactive: -0.237
givinostat
  log2 fold change: inactive: 0.316
[5]
  log2 fold change: active: -0.561
volasertib
  log2 fold change: active: -1.47

## ITGB1BP1 (UniProt O14713)
[1]
  log2 fold change: inactive: -0.007
Nexturastat A
  log2 fold change: inactive: 0.003
givinostat
  log2 fold change: inactive: 0.073
barasertib
  log2 fold change: inactive: 0.067
epoxomicin
  log2 fold change: inactive: 0.006
[7]
  log2 fold change: inactive: -0.125
rosiglitazone
  log2 fold change: inactive: 0.097
[9]
  log2 fold change: inactive: -0.232

## INO80E (UniProt Q8NBZ0)
[1]
  log2 fold change: inactive: -0.002
[2]
  log2 fold change: inactive: -0.1
[3]
  log2 fold change: inactive: -0.038
[4]
  log2 fold change: inactive: -0.11
[11]
  log2 fold change: inactive: 0.011
givinostat
  log2 fold change: inactive: -0.037
barasertib
  log2 fold change: inactive: 0.281
[5]
  log2 fold change: inactive: 0.009
volasertib
  log2 fold change: inactive: 0.081
[7]
  log2 fold change: inactive: -0.151
[8]
  log2 fold change: inactive: 0.224
rosiglitazone
  log2 fold change: inactive: -0.129
[10]
  log2 fold change: inactive: -0.183

## ITPR1 (UniProt Q14643)
[1]
  log2 fold change: inactive: 0.029
[3]
  log2 fold change: inactive: 0.048
Nexturastat A
  log2 fold change: inactive: 0.627
givinostat
  log2 fold change: inactive: -0.244
barasertib
  log2 fold change: inactive: 0.054
epoxomicin
  log2 fold change: inactive: -0.072
[7]
  log2 fold change: inactive: -0.059
rosiglitazone
  log2 fold change: inactive: 0.09

## IDS (UniProt P22304)
[1]
  log2 fold change: inactive: 0.09
[2]
  log2 fold change: inactive: -0.117
[4]
  log2 fold change: inactive: -0.123
volasertib
  log2 fold change: inactive: -0.132
[8]
  log2 fold change: inactive: 0.038
[10]
  log2 fold change: inactive: -0.291

## INCENP (UniProt Q9NQS7)
[1]
  log2 fold change: inactive: 0.021
[3]
  log2 fold change: inactive: -0.136

## INTS12 (UniProt Q96CB8)
vemurafenib
  log2 fold change: inactive: 0.138
[6]
  log2 fold change: inactive: -0.071
[9]
  log2 fold change: inactive: 0.152

## ISL2 (UniProt Q96A47)
[3]
  log2 fold change: inactive: -0.002
barasertib
  log2 fold change: inactive: -0.005
[5]
  log2 fold change: inactive: -0.018
[8]
  log2 fold change: inactive: 0.124
rosiglitazone
  log2 fold change: inactive: 0.284
[10]
  log2 fold change: inactive: 0.024

## IGF2 isoform 3 (UniProt P01344)
[3]
  log2 fold change: inactive: 0.136
vemurafenib
  log2 fold change: inactive: 0.073
givinostat
  log2 fold change: inactive: -0.148
[6]
  log2 fold change: inactive: -0.218
[9]
  log2 fold change: inactive: 0.135

## IGSF8 (UniProt Q969P0)
[1]
  log2 fold change: inactive: 0.064
[2]
  log2 fold change: inactive: -0.155
[3]
  log2 fold change: inactive: 0.003
Nexturastat A
  log2 fold change: inactive: -0.059
vemurafenib
  log2 fold change: inactive: 0.006
[4]
  log2 fold change: inactive: -0.111
[11]
  log2 fold change: inactive: -0.156
givinostat
  log2 fold change: inactive: 0.053
barasertib
  log2 fold change: inactive: -0.032
[5]
  log2 fold change: inactive: 0.037
volasertib
  log2 fold change: inactive: 0.02
epoxomicin
  log2 fold change: inactive: -0.025
[7]
  log2 fold change: inactive: 0.064
[8]
  log2 fold change: inactive: -0.125
[6]
  log2 fold change: inactive: -0.032
rosiglitazone
  log2 fold change: inactive: -0.015
[9]
  log2 fold change: inactive: -0.047
[10]
  log2 fold change: inactive: -0.299

## ING4 (UniProt Q9UNL4)
Nexturastat A
  log2 fold change: inactive: -0.169
givinostat
  log2 fold change: inactive: -0.33
epoxomicin
  log2 fold change: inactive: 0.215
[7]
  log2 fold change: inactive: 0.031
[9]
  log2 fold change: inactive: 0.054

## IPP (UniProt Q9Y573)
barasertib
  log2 fold change: inactive: -0.139

## ISL2 (UniProt H0YN25)
[9]
  log2 fold change: inactive: 0.061

## IGHA2 (UniProt P01877)
[12]
  log2 fold change: inactive: 1.73

## ITIH1 (UniProt P19827)
[11]
  log2 fold change: inactive: -0.169
givinostat
  log2 fold change: inactive: 0.125
[5]
  log2 fold change: inactive: 0.066
[7]
  log2 fold change: inactive: -0.184
